Binding data for 30 molecules are collected here from US20250163183A1.

Amino acid sequences for entries named in this document (tags omitted). A change or cut given only in a name is not applied to a line headed by its entry.
UniProt P04070: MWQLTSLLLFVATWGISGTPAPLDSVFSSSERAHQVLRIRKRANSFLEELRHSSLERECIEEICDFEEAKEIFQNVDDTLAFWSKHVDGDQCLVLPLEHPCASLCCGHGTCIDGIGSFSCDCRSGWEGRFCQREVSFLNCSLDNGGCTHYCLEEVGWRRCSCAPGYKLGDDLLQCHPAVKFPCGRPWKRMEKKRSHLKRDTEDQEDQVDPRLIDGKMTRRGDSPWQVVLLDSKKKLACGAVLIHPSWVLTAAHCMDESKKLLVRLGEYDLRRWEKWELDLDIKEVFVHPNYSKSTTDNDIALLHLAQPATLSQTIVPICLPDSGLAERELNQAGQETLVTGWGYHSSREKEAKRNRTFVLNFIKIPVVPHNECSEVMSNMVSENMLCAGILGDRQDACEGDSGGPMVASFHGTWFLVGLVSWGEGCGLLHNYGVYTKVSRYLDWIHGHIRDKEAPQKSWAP

Positions count from the first letter of the chain named. These are yes or no findings as the source states them, for the method shown. Some entries that bind do so weakly or less than the wild type.

Assay [1] concerns the target human activated protein C (APC) (human) (UniProt P04070). Put plainly: ELISA.
For assay [2] the target is unchanged. As to the kind of experiment: ELISA screen, APC-coated wells, OD450, n=2 [Continued].

B1: SR16983-R2-P4-G01 (VHH)
VHH: QLQLVESGGGLVQAGGSLRLSCAASGRTVGSYVMGWFRQAPGKEREFLAANSRSTGNTVYADSVKGRFTISRDDAKNTLYLQMNSLKPEDTAVYYCATRASINYNYANWPYWGQGTQVNVSS
Consider B1, for which the binding result in assay [1] and in assay [2] was “binds” throughout.

B2: SR16983-R3-P3-G03 (VHH)
VHH: B1 VHH with L2V, F47L, N51F, T98A, N119T
For the molecule B2, the binding entry in assay [1] and in assay [2] was “binds” throughout.

B3: SR16983-R3P2D09 (VHH)
VHH: B1 VHH with L2V, V33A, N51F, T98A, N119T
As for B3, the binding result in assay [1] and in assay [2] was “binds” each time.

B4: SR16983-R2-P4-B05 (VHH)
VHH: B1 VHH with L2V, T28V, V29F, S31T, L48V, N51F, N57H, T58I, V59T, N119T
Turning to B4, the binding result in assay [1] and in assay [2] was “binds” throughout.

B5: SR16983-R3P2G9 (VHH)
VHH: B1 VHH with L2V, A14P, V29F, L48V, N51A, A61P, T98A, N119T
Turning to B5, the binding result in assay [1] and in assay [2] was “binds” throughout.

B6: SR16983-R3-P3-A12 (VHH)
VHH: QLQLVESGGGLVQPGGSLRLSCAVSGFTLDDYAIGWFRQAPGKEREGVSSIATSDGSTYYADSVKGRFTISSDNAKNTVYLQMNSLKPEDTAVYYCARGGLLLPRPELYEYWGQGTQVTVSS
As to B6, the binding entry in assay [1] and in assay [2] was “binds” in each case.

B7: SR16983-R3-P4-A05 (VHH)
VHH: B6 VHH with P14A, V24A, S50C, N74A, N84D, R105K, Y109F, E110D, Y111G, S122T
Turning to B7, the binding result in assay [1] and in assay [2] was “binds” throughout.

B8: SR16983-R3-P3-G05 (VHH)
VHH: B6 VHH with P14A, V24A, S50C, T53S, S72T, R105K, Y109F, E110D, Y111S
Turning to B8, the binding result in assay [1] and in assay [2] was “binds” each time.

B9: SR16983-R3-P3-F01 (VHH)
VHH: EVQLVESGGGLVQAGDSLRLSCARSGLTASTYAMAWFRQAPGKEREFVSVIDWKGDTTYANSVKGRFTISRDNGKNTVYLQMNSLQPEDTALYYCAARGSPAYVARLYAYWGRGTQVTVSS
For B9, the binding entry in assay [1] and in assay [2] was “binds” throughout.

B10: SR16983-R3-P4-H10 (VHH)
VHH: B9 VHH with E1Q, D16G, R24A, A29S, A33V, W53S, K54R, I69T, N73F, G99A
On to B10, for which the binding result in assay [1] and in assay [2] was “binds” each time.

B11: SR16983-R3-P3-C06 (VHH)
VHH: QLQLVESGGGLVQPGGSLRLSCAASGFTFSTKWMYWVRQGPGKGLEWVSTIDASGGSTYYADSVKGRFTISRDNTEKKVYLQMNSLESADTAVYYCARSAGGQFRGRGTQVTVSS
As for B11, the binding entry in assay [1] and in assay [2] was “binds” throughout.

B12: SR16983-R2-P4-F09 (VHH)
VHH: QVQLVESGGGLVQAGGSLRLSCAASGFTFDDYAIGWFRQAPGKEREGIACRSTDGSTYYADSVEGRFTISSDNAKRTVYLQMNSLKPGDTAVYYCAADLMGVHRRCSGYLNLEYGMDYWAKGTLVTVSS
Consider B12, for which the binding entry in assay [1] and in assay [2] was “binds” in each case.

B13: SR16983-R3P2A07 (VHH)
VHH: QVQLVESGGRLVQAGGSLRLSCAASGRTSSNYAMGWFRQAPGKERRFVAGISRDGADTSYADSVKGRFTILRDRSKNTADLQMNSLKPEDTAIYYCAAARGIYGEISRYTGDYESWGQGTQVTVSS
B13: the binding result in assay [1] and in assay [2] was “binds” throughout.

B14: SR16983-R3-P4-G01 (VHH)
VHH: QLQLVESGGGLVQAGGSLRLSCAASGRTFVGSYVMGWFRQAPGKEREFVAASSRSTGNTVYLDSVKGRFTISRDDAKNMLYLQMNSLKPEDTAVYYCATRASINYNYANWPYWGQGTQVTVSS
Take B14: the binding entry in assay [1] and in assay [2] was “binds” in each case.

B15: SR16983-R4-P1-A12 (VHH)
VHH: QLQLVESGGGLVQAGGSLRLSCAASGTTSSLNLMGWYRQAPGKKRESVAHMTSDGDTDYVDSVKGRFTISRDNSKNTVYLQMNNVKPEDTAVYYCYANPFLGSWSNYWGQGTQVTVSS
Take B15: the binding entry in assay [1] and in assay [2] was “binds” each time.

B16: SR16983-R3-P5-C03 (VHH)
VHH: QLQLVESGGGLVQAGGSLRLSCAASGTTFSFVYMGWYRQAPGNQRELVARLSSDGSTNYADSVKGRFLISGDNAKNTVYLQMNSLKPEDTARYYCFYNGHLNKWGQGTQVTVSS
On to B16, for which the binding result in assay [1] and in assay [2] was “binds” throughout.

B17: SR16983-R3-P4-F06 (VHH)
VHH: B16 VHH with A23E, G26R, V32N, E46D, L51I, D54G, S56I, L68T
With B17, the binding result in assay [1] and in assay [2] was “binds” each time.

B18: SR16983-R3-P2-G05 (VHH)
VHH: B16 VHH with A14T, E46D, L51I, L68T, D72G
Consider B18, for which the binding result in assay [1] and in assay [2] was “binds” each time.

B19: SR16983-R3-P2-E09 (VHH)
VHH: B16 VHH with V32N, E46D, L51I, D54G, L68T, G71A, Y94T, Y97W, H100Y, L101T
For the molecule B19, the binding entry in assay [1] and in assay [2] was “binds” each time.

B20: SR16983-R3-P5-A11 (VHH)
VHH: B16 VHH with L2V, R19G, E46D, L51I, L68T, S84N, L101V
Regarding B20, in assay [1], the binding result is “binds”.

B21: SR16983-R2-P2-G11 (VHH)
VHH: B16 VHH with L2V, V32N, E46D, L51I, D54G, S56I, L68T, T77V
As to B21, the binding result in assay [1] and in assay [2] was “binds” each time.

B22: SR16983-R2-P5-H07 (VHH)
VHH: B16 VHH with L2V, L51I, A60S, D72A
Consider B22, for which the binding entry in assay [1] and in assay [2] was “binds” in each case.

B23: SR16983-R3-P2-B02 (VHH)
VHH: B16 VHH with E46D, L51I, L68T, T77I
On to B23, for which the binding result in assay [1] and in assay [2] was “binds” each time.

B24: SR16983-R2-P4-G06 (VHH)
VHH: EVQLVESGGGLVQAGGSLRLSCTTSGSTFSITAGGWYRQAPGKQRELVADIANDGSTTYADSVKGRFTISRDNAKNTVELQMSSLKLEDTAVYLCFVVGISDSTPRPRAYWGQGTQVTVSS
As for B24, the binding entry in assay [1] and in assay [2] was “binds” in each case.

B25: SR16983-R3-P2-D12 (VHH)
VHH: QLQLVESGGGLVQAGGSLRLSCAASGSTFNFNIMGWYRQVPGKQRELVAVINSGGSADYTEDVKGRFTISRDNAKSIMYLQMNSLKPEDTAVYYCNAKKVEPTLFTTTYWGQGTQVTVSS
Turning to B25, the binding entry in assay [1] and in assay [2] was “binds” in each case.

B26: SR16983-R3-P2-A08 (VHH)
VHH: QVQLVESGGGLVQAGGSLRLSCAASGRTSSNYNMGWFRQAPGKEREFVAAIPWTGSTTYYADPVKGRFTISRDSTKNTGDLQMNSLKPEDTAVYYCALGRRENYYALLQQRGYDYWGQGTQVTVSS
For B26, in assay [1], the binding entry was “binds”.

B27: SR16983-R2-P2-A08 (VHH)
VHH: QVQLVESGGGVVQAGGSLRLSCAASGLTSSTYVMAWFRQAPGKEREFVSVIDSRGDTTYAKSVKGRFSISRDNGKNAVYLQMNSLQPEDTALYYCAARASASYVARMYAYWGRGTQVTVSS
Take B27: the binding result in assay [1] and in assay [2] was “binds” each time.

B28: SR16983-R3P2H05 (VHH)
VHH: QLQLVESGGGLVQPGGSLRLACAASGFSFDDYAIGWFRQAPGKEREGVSCITSDGSTYYADSVKGRFTISSDYAKNTVHLQMNSLKPEDTAVYYCARGGLLLPKPELFDDWGQGTQVTVSS
Turning to B28, the binding result in assay [1] and in assay [2] was “binds” each time.

B29: SR16983-R3P2G08 (VHH)
VHH: QLQLVESGGGLVQAGGSMRLSCTASGSTVRVTAGGWYRQAPGNERELVADIDNGGSTTYADSVKGRFTISRDNAKNAVDLQMNSLKPEDTAVYRCFVIAIPDSAPRPRAYWGQGTQVTVSS
B29: the binding entry in assay [1] and in assay [2] was “binds” each time.

B30: SR16983-R4-P1-C07 (VHH)
VHH: EVQLVESGGGVVQAGGSLRLSCVLSGNTFGDNVITWYRQPPGKQREFIAMITKSGSTRYADSVKGRFTMSRDTAKNTAFLQMSSLKVEDTAVYYCWTAIAGQGEYWGQGTQVTVSS
In the case of B30, the binding result in assay [1] and in assay [2] was “binds” throughout.
